The results in this text go back to paper PMC3375313.

Results are given in words; binding and its absence hold for the method and conditions named. For some assays here: Binding can be weak; no strength is given. Where a sequence is shown, tags or fusion partners need not be part of it. For some assays here: In cells and extracts the contact can be indirect.

Test [1] addresses T1, GST-TFT1 (tomato) (UniProt P93206).
T1 sequence: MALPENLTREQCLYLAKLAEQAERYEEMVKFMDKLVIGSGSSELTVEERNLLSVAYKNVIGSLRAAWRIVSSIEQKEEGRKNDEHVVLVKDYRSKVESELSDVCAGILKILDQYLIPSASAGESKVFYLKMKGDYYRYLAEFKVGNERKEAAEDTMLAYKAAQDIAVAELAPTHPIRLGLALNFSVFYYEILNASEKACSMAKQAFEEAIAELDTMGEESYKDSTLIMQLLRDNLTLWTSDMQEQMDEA
As to the kind of experiment: pull-down; GST or GST-TFT1 on glutathione sepharose beads incubated 2 h at 4°C with N. benthamiana leaf extract containing TARK1-HA and XopN-6His; 50 mM Tris pH 8, 150 mM NaCl, 2% glycerol, 1% Triton X-100; only the target purified.

For test [2], the target named is T1, GST-TFT1 (tomato). In words: pull-down; GST-TFT1 on glutathione sepharose beads incubated 2 h at 4°C with N. benthamiana leaf extract containing TARK1-HA and XopN(S688A)-6His; same buffer; only the target purified.
For test [3], the target named is T1, GST-TFT1 (tomato). As to the kind of experiment: pull-down; GST-TFT1 on glutathione sepharose beads incubated 2 h at 4°C with N. benthamiana leaf extract containing TARK1-HA and XopN(L64A,L65A)-6His; same buffer; only the target purified.
In test [4] the target is DBD-XopN N (1–349) (Xanthomonas campestris pv. vesicatoria). As to the kind of experiment: two-hybrid; GAL4-based, yeast AH109; DBD-XopN fusions (pXDGATcy86) as bait, AD-TFT1 or AD-TARK1CD (pGADT7) as prey; growth on SD-LTH ± 1 mM 3-amino-1,2,4-triazole, 30°C, 3 d.
Test [5] concerns the target DBD-XopN (GAL4 DNA-binding domain fused to XopN 1–733) (Xanthomonas campestris pv. vesicatoria). The test is described as above.
The target of test [6] is DBD-XopN M5 (1–604) (Xanthomonas campestris pv. vesicatoria). The test is described as above.
Test [7] has as its target DBD-XopN M6 (1–514) (Xanthomonas campestris pv. vesicatoria). Described as above.
Test [8] addresses DBD-XopN(S688A) (Xanthomonas campestris pv. vesicatoria). The test is described as above.
Test [9] concerns the target XopN(S688A)-nYFP (Xanthomonas campestris pv. vesicatoria). As to the kind of experiment: split reporter; BiFC in N. benthamiana leaf epidermal cells, two Agrobacterium strains (nYFP fusion + cCFP fusion), confocal microscopy at 48 HPI.
The target of test [10] is XopN-nYFP (Xanthomonas campestris pv. vesicatoria). Described as above.
In test [11] the target is XopN(L64A,L65A)-nYFP (Xanthomonas campestris pv. vesicatoria). The description is as above.
Test [12] deals with XopN(S688E)-6His (Xanthomonas campestris pv. vesicatoria). In words: pull-down; Ni-NTA agarose pull-down of 6His-tagged XopN proteins from soluble extracts of N. benthamiana leaves co-expressing TFT1-HA or TARK1-HA (48 h); 50 mM NaH2PO4 pH 8.0, 150 mM NaCl, 10 mM imidazole, 2% glycerol, 1% Triton X-100; anti-His and anti-HA blots.
The target in test [13] is XopN(S688A)-6His (Xanthomonas campestris pv. vesicatoria). The test is described as above.
For test [14], the target named is XopN(1–349)-6His (N-terminal domain) (Xanthomonas campestris pv. vesicatoria). The description is as above.
Test [15] has as its target XopN-ΔM1/M2-6His (Xanthomonas campestris pv. vesicatoria). The description is as above.
The target in test [16] is XopN(1–604)-6His (Xanthomonas campestris pv. vesicatoria). The test is described as above.
Test [17] concerns the target XopN-6His (full-length) (Xanthomonas campestris pv. vesicatoria). The description is as above.
Test [18] has as its target XopN(L64A,L65A)-6His (Xanthomonas campestris pv. vesicatoria). Described as above.
Test [19] concerns the target XopN-ΔPEST-6His (Xanthomonas campestris pv. vesicatoria). The description is as above.
The target in test [20] is XopN(S688D)-6His (Xanthomonas campestris pv. vesicatoria). The description is as above.

For “XopN-6His (full-length) (Xanthomonas campestris pv. vesicatoria)”, the binding result with GST-TFT1 (tomato) [1] was “binds”.
Turning to “XopN(S688A)-6His (Xanthomonas campestris pv. vesicatoria)”, the binding entry with GST-TFT1 (tomato) [2] was “binds”.
With “XopN(L64A,L65A)-6His (Xanthomonas campestris pv. vesicatoria)”, the binding entry with GST-TFT1 (tomato) [3] is reported as “binds”.

B1: AD-TFT1 (GAL4 activation domain fused to TFT1) (protein, UniProt P93206 1-249)
chain: T1 sequence
As to B1, the binding result in test [4] is “no binding”; in [5] it was “binds”; in test [6], “no binding”; in [7], “no binding”; in [8], “no binding”.

B2: TFT1-cCFP (protein, UniProt P93206 1-249)
chain: T1 sequence
In the case of B2, the binding result in test [9] was “binds weakly”; in test [10] it was “binds”; in [11] it was “binds”.

B3: TFT1-HA (protein, UniProt P93206 1-249)
chain: T1 sequence
B3: the binding result in test [12] is reported as “binds”; in [13] it was “binds”; in test [14], “binds weakly”; in [15], “binds”; in test [16], “no binding”; in test [17], “binds”. Further, the binding entry in test [18], in test [19] and in test [20] was “binds” each time.
